Experimental data taken from US20150010546A1 (Ablynx, published 2015).
These are yes or no findings as the source states them, for the method shown. Some binding calls cover weakened binding; strength is not graded here.

Amino acid sequences for entries named in this document (tags omitted). A change or cut given only in a name is not applied to a line headed by its entry.
UniProt P14210: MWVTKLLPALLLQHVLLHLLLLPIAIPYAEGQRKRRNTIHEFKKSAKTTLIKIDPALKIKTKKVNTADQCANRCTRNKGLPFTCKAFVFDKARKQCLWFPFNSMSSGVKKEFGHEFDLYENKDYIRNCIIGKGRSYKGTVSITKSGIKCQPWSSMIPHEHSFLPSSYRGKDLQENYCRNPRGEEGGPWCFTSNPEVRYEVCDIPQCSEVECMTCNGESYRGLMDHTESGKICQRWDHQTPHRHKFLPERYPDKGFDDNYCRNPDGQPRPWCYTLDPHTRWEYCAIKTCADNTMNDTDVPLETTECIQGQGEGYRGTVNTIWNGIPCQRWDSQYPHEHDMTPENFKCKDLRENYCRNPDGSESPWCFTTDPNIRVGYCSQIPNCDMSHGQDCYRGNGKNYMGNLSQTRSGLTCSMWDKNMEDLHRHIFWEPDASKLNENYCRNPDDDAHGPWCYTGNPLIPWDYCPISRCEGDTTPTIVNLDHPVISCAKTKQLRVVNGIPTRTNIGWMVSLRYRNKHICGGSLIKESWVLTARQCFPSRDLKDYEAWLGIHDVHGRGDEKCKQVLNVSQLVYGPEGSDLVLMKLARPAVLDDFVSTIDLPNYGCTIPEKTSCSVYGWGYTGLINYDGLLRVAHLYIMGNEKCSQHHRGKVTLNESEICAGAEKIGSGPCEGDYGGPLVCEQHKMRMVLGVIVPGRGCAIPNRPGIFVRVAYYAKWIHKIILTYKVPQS

Key:
[1] = biological target: T1, human HGF (R&D Systems, 294-HG/CF) (human, UniProt P14210 32-728); experiment: AlphaScreen screen, periplasmic extract at a single dilution; inhibition of biotinylated human HGF binding to c-Met-Fc
T1 construct: The entry begins at QRKRR, without signal peptide; Amine-coupled to the chip in SPR and biotinylated in AlphaScreen; also called rec hHGF (R&D systems)

[2] = biological target: T1, human HGF (R&D Systems, 294-HG/CF); experiment: AlphaScreen competition, serial dilution of purified Nanobody; inhibition of biotinylated human HGF binding to c-Met-Fc
Experimental: In brief, 5 μl of 1/5 prediluted periplasmic extract of individual Nanobody clones were incubated with 3 nM biotinylated HGF, 2 nM c-Met-Fc, streptavidin coated donor beads and anti-human IgG1 Fc Nanobody covalently coupled AlphaScreen acceptor beads. Monoclonal antibody clone 24612 (R&D systems) known to inhibit the HGF/c-Met-Fc interaction, was used as a positive control. Assays were read in an Envision AlphaScreen™ option fitted multimode reader (Perkin Elmer). Individual clones were scored as putative HGF/c-Met-Fc interaction inhibiting if the presence of the periplasmic extract decreased the fluorescent signal of the acceptor beads. Both inhibitory and non-inhibitory clones were identified. A 10-fold reduction in signal with respect to the negative control (irrelevant periplasmic extract and buffer) was used to select the HGF/c-Met inhibiting Nanobodies. As a positive control, anti-HGF monoclonal antibody (R&D systems, clone 24612) was included. FIG. 2 depicts an example of screen of periplasmic extracts using AlphaScreen.
Serial dilutions of purified Nanobodies were then analyzed for their ability to block the interaction of human HGF with c-Met-Fc using the same AlphaScreen™ assay as described above (1.4). […]

[3] = biological target: human HGF (R&D material and Peprotech material, values averaged over both) (human) (UniProt P14210); experiment: SPR (Biacore T100), summary table; Kd cell holds a word for the binding behaviour, no Kd fitted

Measured: binding

B1: 9G6 (VHH)
VHH: EVQLVESGGGLVQAGGSLRLSCAASGRTLSDYTMGWFRQAPGKEREFVARINTGGPITSYSDSVKGRFTISRDNAKNTVYLQMNSLKPEDTAVYNCAARLPTKMSPRDYSSYAYRGQGTQVTVSS
notes: anti-HGF Nanobody clone; not shown: c-myc and His6 tags
binds: all assays above
